Experimental data reported in US11065203B2, “Liposomal compositions and uses of same” (Technion Research & Development Foundation Limited, priority 2009, dated 2021).

Assay: Proteomics analysis (trypsin digest, LC-MS/MS) of hMSC ghosts and derived CDLs, conditioned or unconditioned by PC3 medium
Set-up: species or system human
Conditions: LC-MS/MS peak area per protein; for Ratio of expression Cond. CDLs/Cond. Ghosts: CDLs derived from conditioned hMSCs versus conditioned ghosts; for Ratio of expression Cond Ghosts/Ghosts: hMSC ghosts conditioned by PC3 medium versus unconditioned ghosts

Molecule	Ratio of expression Cond. CDLs/Cond. Ghosts	Ratio of expression Cond Ghosts/Ghosts
P35914 (protein, UniProt P35914 1-325, looked up, full-length) MAAMRKALPRRLVGLASLRAVSTSSMGTLPKRVKIVEVGPRDGLQNEKNIVSTPVKIKLIDMLSEAGLSVIETTSFVSPKWVPQMGDHTEVLKGIQKFPGINYPVLTPNLKGFEAAVAAGAKEVVIFGAASELFTKKNINCSIEESFQRFDAILKAAQSANISVRGYVSCALGCPYEGKISPAKVAEVTKKFYSMGCYEISLGDTIGVGTPGIMKDMLSAVMQEVPLAALAVHCHDTYGQALANTLMALQMGVSVVDSSVAGLGGCPYAQGASGNLATEDLVYMLEGLGIHTGVNLQKLLEAGNFICQALNRKTSSKVAQATCKL	8%	62%
P37802 (protein, UniProt P37802 1-199, looked up, full-length) MANRGPAYGLSREVQQKIEKQYDADLEQILIQWITTQCRKDVGRPQPGRENFQNWLKDGTVLCELINALYPEGQAPVKKIQASTMAFKQMEQISQFLQAAERYGINTTDIFQTVDLWEGKNMACVQRTLMNLGGLAVARDDGLFSGDPNWFPKKSKENPRNFSDNQLQEGKNVIGLQMGTNRGASQAGMTGYGMPRQIL	4%	61%
P21964 (protein, UniProt P21964 1-271, looked up, full-length) MPEAPPLLLAAVLLGLVLLVVLLLLLRHWGWGLCLIGWNEFILQPIHNLLMGDTKEQRILNHVLQHAEPGNAQSVLEAIDTYCEQKEWAMNVGDKKGKIVDAVIQEHQPSVLLELGAYCGYSAVRMARLLSPGARLITIEINPDCAAITQRMVDFAGVKDKVTLVVGASQDIIPQLKKKYDVDTLDMVFLDHWKDRYLPDTLLLEECGLLRKGTVLLADNVICPGAPDFLAHVRGSSCFECTHYQSFLEYREVVDGLEKAIYKGPGSEAGP	0%	148%
P30084 (protein, UniProt P30084 1-290, looked up, full-length) MAALRVLLSCVRGPLRPPVRCPAWRPFASGANFEYIIAEKRGKNNTVGLIQLNRPKALNALCDGLIDELNQALKTFEEDPAVGAIVLTGGDKAFAAGADIKEMQNLSFQDCYSSKFLKHWDHLTQVKKPVIAAVNGYAFGGGCELAMMCDIIYAGEKAQFAQPEILIGTIPGAGGTQRLTRAVGKSLAMEMVLTGDRISAQDAKQAGLVSKICPVETLVEEAIQCAEKIASNSKIVVAMAKESVNAAFEMTLTEGSKLEKKLFYSTFATDDRKEGMTAFVEKRKANFKDQ	3%	57%
O43852 (protein, UniProt O43852 1-315, looked up, full-length) MDLRQFLMCLSLCTAFALSKPTEKKDRVHHEPQLSDKVHNDAQSFDYDHDAFLGAEEAKTFDQLTPEESKERLGKIVSKIDGDKDGFVTVDELKDWIKFAQKRWIYEDVERQWKGHDLNEDGLVSWEEYKNATYGYVLDDPDPDDGFNYKQMMVRDERRFKMADKDGDLIATKEEFTAFLHPEEYDYMKDIVVQETMEDIDKNADGFIDLEEYIGDMYSHDGNTDEPEWVKTEREQFVEFRDKNRDGKMDKEETKDWILPSDYDHAEAEARHLVYESDQNKDGKLTKEEIVDKYDLFVGSQATDFGEALVRHDEF	2%	143%
O75390 (protein, UniProt O75390 1-466, looked up, full-length) MALLTAAARLLGTKNASCLVLAARHASASSTNLKDILADLIPKEQARIKTFRQQHGKTVVGQITVDMMYGGMRGMKGLVYETSVLDPDEGIRFRGFSIPECQKLLPKAKGGEEPLPEGLFWLLVTGHIPTEEQVSWLSKEWAKRAALPSHVVTMLDNFPTNLHPMSQLSAAVTALNSESNFARAYAQGISRTKYWELIYEDSMDLIAKLPCVAAKIYRNLYREGSGIGAIDSNLDWSHNFTNMLGYTDHQFTELTRLYLTIHSDHEGGNVSAHTSHLVGSALSDPYLSFAAAMNGLAGPLHGLANQEVLVWLTQLQKEVGKDVSDEKLRDYIWNTLNSGRVVPGYGHAVLRKTDPRYTCQREFALKHLPNDPMFKLVAQLYKIVPNVLLEQGKAKNPWPNVDAHSGVLLQYYGMTEMNYYTVLFGVSRALGVLAQLIWSRALGFPLERPKSMSTEGLMKFVDSKSG	3%	157%
Q8TCJ2 (protein, UniProt Q8TCJ2 1-826, looked up, full-length) MAEPSAPESKHKSSLNSSPWSGLMALGNSRHGHHGPGAQCAHKAAGGAAPPKPAPAGLSGGLSQPAGWQSLLSFTILFLAWLAGFSSRLFAVIRFESIIHEFDPWFNYRSTHHLASHGFYEFLNWFDERAWYPLGRIVGGTVYPGLMITAGLIHWILNTLNITVHIRDVCVFLAPTFSGLTSISTFLLTRELWNQGAGLLAACFIAIVPGYISRSVAGSFDNEGIAIFALQFTYYLWVKSVKTGSVFWTMCCCLSYFYMVSAWGGYVFIINLIPLHVFVLLLMQRYSKRVYIAYSTFYIVGLILSMQIPFVGFQPIRTSEHMAAAGVFALLQAYAFLQYLRDRLTKQEFQTLFFLGVSLAAGAVFLSVIYLTYTGYIAPWSGRFYSLWDTGYAKIHIPIIASVSEHQPTTWVSFFFDLHILVCTFPAGLWFCIKNINDERVFVALYAISAVYFAGVMVRLMLTLTPVVCMLSAIAFSNVFEHYLGDDMKRENPPVEDSSDEDDKRNQGNLYDKAGKVRKHATEQEKTEEGLGPNIKSIVTMLMLMLLMMFAVHCTWVTSNAYSSPSVVLASYNHDGTRNILDDFREAYFWLRQNTDEHARVMSWWDYGYQIAGMANRTTLVDNNTWNNSHIALVGKAMSSNETAAYKIMRTLDVDYVLVIFGGVIGYSGDDINKFLWMVRIAEGEHPKDIRESDYFTPQGEFRVDKAGSPTLLNCLMYKMSYYRFGEMQLDFRTPPGFDRTRNAEIGNKDIKFKHLEEAFTSEHWLVRIYKVKAPDNRETLDHKPRVTNIFPKQKYLSKKTTKRKRGYIKNKLVFKKGKKISKKTV	1%	155%
P02461 (protein, UniProt P02461 1-1466, looked up, full-length) MMSFVQKGSWLLLALLHPTIILAQQEAVEGGCSHLGQSYADRDVWKPEPCQICVCDSGSVLCDDIICDDQELDCPNPEIPFGECCAVCPQPPTAPTRPPNGQGPQGPKGDPGPPGIPGRNGDPGIPGQPGSPGSPGPPGICESCPTGPQNYSPQYDSYDVKSGVAVGGLAGYPGPAGPPGPPGPPGTSGHPGSPGSPGYQGPPGEPGQAGPSGPPGPPGAIGPSGPAGKDGESGRPGRPGERGLPGPPGIKGPAGIPGFPGMKGHRGFDGRNGEKGETGAPGLKGENGLPGENGAPGPMGPRGAPGERGRPGLPGAAGARGNDGARGSDGQPGPPGPPGTAGFPGSPGAKGEVGPAGSPGSNGAPGQRGEPGPQGHAGAQGPPGPPGINGSPGGKGEMGPAGIPGAPGLMGARGPPGPAGANGAPGLRGGAGEPGKNGAKGEPGPRGERGEAGIPGVPGAKGEDGKDGSPGEPGANGLPGAAGERGAPGFRGPAGPNGIPGEKGPAGERGAPGPAGPRGAAGEPGRDGVPGGPGMRGMPGSPGGPGSDGKPGPPGSQGESGRPGPPGPSGPRGQPGVMGFPGPKGNDGAPGKNGERGGPGGPGPQGPPGKNGETGPQGPPGPTGPGGDKGDTGPPGPQGLQGLPGTGGPPGENGKPGEPGPKGDAGAPGAPGGKGDAGAPGERGPPGLAGAPGLRGGAGPPGPEGGKGAAGPPGPPGAAGTPGLQGMPGERGGLGSPGPKGDKGEPGGPGADGVPGKDGPRGPTGPIGPPGPAGQPGDKGEGGAPGLPGIAGPRGSPGERGETGPPGPAGFPGAPGQNGEPGGKGERGAPGEKGEGGPPGVAGPPGGSGPAGPPGPQGVKGERGSPGGPGAAGFPGARGLPGPPGSNGNPGPPGPSGSPGKDGPPGPAGNTGAPGSPGVSGPKGDAGQPGEKGSPGAQGPPGAPGPLGIAGITGARGLAGPPGMPGPRGSPGPQGVKGESGKPGANGLSGERGPPGPQGLPGLAGTAGEPGRDGNPGSDGLPGRDGSPGGKGDRGENGSPGAPGAPGHPGPPGPVGPAGKSGDRGESGPAGPAGAPGPAGSRGAPGPQGPRGDKGETGERGAAGIKGHRGFPGNPGAPGSPGPAGQQGAIGSPGPAGPRGPVGPSGPPGKDGTSGHPGPIGPPGPRGNRGERGSEGSPGHPGQPGPPGPPGAPGPCCGGVGAAAIAGIGGEKAGGFAPYYGDEPMDFKINTDEIMTSLKSVNGQIESLISPDGSRKNPARNCRDLKFCHPELKSGEYWVDPNQGCKLDAIKVFCNMETGETCISANPLNVPRKHWWTDSSAEKKHVWFGESMDGGFQFSYGNPELPEDVLDVHLAFLRLLSSRASQNITYHCKNSIAYMDQASGNVKKALKLMGSNEGEFKAEGNSKFTYTVLEDGCTKHTGEWSKTVFEYRTRKAVRLPIVDIAPYDIGGPDQEFGVDVGPVCFL	6%	35%
P51148 (protein, UniProt P51148 1-216, looked up, full-length) MAGRGGAARPNGPAAGNKICQFKLVLLGESAVGKSSLVLRFVKGQFHEYQESTIGAAFLTQTVCLDDTTVKFEIWDTAGQERYHSLAPMYYRGAQAAIVVYDITNTDTFARAKNWVKELQRQASPNIVIALAGNKADLASKRAVEFQEAQAYADDNSLLFMETSAKTAMNVNEIFMAIAKKLPKNEPQNATGAPGRNRGVDLQENNPASRSQCCSN	6%	161%
